# Measurements as given in the supplement of paper PMC7752906.
# Counter-ions that a name gives are not always drawn. The list shows a part of the results. Repeats in this data set agree poorly, so a single value says little.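 About 40 Schistosoma mansoni schistosomula per well were imaged over time in bright field and compared with 0.1% DMSO wells. A drug counts as a hit if its Mahalanobis distance reaches 2.47 or more, three standard deviations above the DMSO control mean. Degeneracy is the fraction of worms scored opaque.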
# Test system: Schistosoma mansoni schistosomula
# Test: Mahalanobis distance of static-rate-frequency phenotype descriptors from DMSO controls (dimensionless); higher = stronger phenotypic change versus DMSO
# Details: 10 µM; 72 h
row,Structure (SMILES),Mahalanobis distance
1,O=C1CN=C(c2ccccc2)c2cc([N+](=O)[O-])ccc2N1 [Nitrazepam],active: 3.29
2,NC(=O)CN1CCCC1=O [Piracetam],inactive: 1.61
3,O=c1[nH]c(=O)n(Cl)c(=O)n1Cl [Troclosene Potassium],inactive: 1.75
4,CC(C)c1c(CN(C)C(C)Cc2ccccc2)n(C)n(-c2ccccc2)c1=O (stereo not drawn) [Famprofazone],active: 2.75
5,C=CCN1C[C@H](C(=O)N(CCCN(C)C)C(=O)NCC)C[C@@H]2c3cccc4[nH]cc(c34)C[C@H]21 [Cabergoline],active: 5.23
6,CC(CC(C(N)=O)(c1ccccc1)c1ccccc1)N(C)C (stereo not drawn) [Aminopentamide Sulfate],inactive: 1.48
7,OC[C@@H](O)[C@H]1O[C@@H]2O[C@H](C(Cl)(Cl)Cl)O[C@@H]2[C@H]1O [Chloralose],inactive: 1.51
8,C[N+]12CCC(CC1)C(OC(=O)C(O)(c1ccccc1)c1ccccc1)C2 (stereo not drawn) [Clidinium Bromide],inactive: 2.08
9,CO[C@]12C[C@@H](COC(=O)c3cncc(Br)c3)CN(C)[C@@H]1Cc1cn(C)c3cccc2c13 [Nicergoline],active: 3.27
10,COC(=O)C(c1ccccc1)C1CCCCN1 (stereo not drawn) [Methylphenidate Hydrochloride],inactive: 1.53
11,CCC(C)(C)O [Amylene Hydrate],inactive: 1.89
12,C[C@]12Cc3c[nH]nc3C[C@@H]1CC[C@@H]1[C@@H]2CC[C@@]2(C)[C@H]1CC[C@]2(C)O [Stanozolol],active: 2.48
13,C[C@@H]1CC[C@H]2[C@@H](C)C(=O)O[C@@H]3O[C@@]4(C)CC[C@@H]1[C@]32OO4 [Artemisinin],inactive: 1.79
14,COc1cc([C@@H]2c3cc4c(cc3[C@H](O)[C@H]3COC(=O)[C@H]23)OCO4)cc(OC)c1OC [podofilox],inactive: 2.11
15,CN(C)C(=O)Oc1cccc([N+](C)(C)C)c1 [Neostigmine Bromide],inactive: 2.42
16,CN1[C@H]2C[C@H](OC(=O)[C@H](CO)c3ccccc3)C[C@@H]1[C@@H](O)C2 [Anisodamine Hydrobromide],inactive: 2.46
17,CN1CCc2cc3c(cc2C1O)OCO3 (stereo not drawn) [Hydrastinine Hydrochloride],inactive: 1.81
18,NP(N)(=O)NC(=O)c1ccc(F)cc1 [Flurofamide],inactive: 1.36
19,CN1[C@@H]2CC[C@H]1C[C@@H](OC(=O)C(CO)c1ccccc1)C2 (stereo partly drawn) [Atropine],inactive: 1.66
20,C[C@]12CCC(=O)C=C1CC[C@@H]1[C@@H]2CC[C@@]2(C)[C@H]1CC[C@]2(C)O [Methyltestosterone],active: 3.14
21,CC(C)C[C@H]1C(=O)N2CCC[C@H]2[C@]2(O)O[C@](NC(=O)[C@@H]3C=C4c5cccc6[nH]c(Br)c(c56)C[C@H]4N(C)C3)(C(C)C)C(=O)N12 [Bromocriptine Mesylate],active: 3.23
22,CNCC(O)c1ccc(O)cc1 (stereo not drawn) [Oxedrine],inactive: 1.44
23,C[C@]12CCC(=O)C(O)=C1CC[C@@H]1[C@@H]2CC[C@]2(C)C(=O)CC[C@@H]12 [Formestane],inactive: 2.22
24,"CCOP(=S)(OCC)Oc1cc(C)nc(C(C)C)n1 [Diazinon, Dimpylate]",inactive: 2.12

# Single entries from above.
# Mahalanobis distance with CCC(C)(C)O [Amylene Hydrate] is entered as inactive: 1.89
# Mahalanobis distance with CO[C@]12C[C@@H](COC(=O)c3cncc(Br)c3)CN(C)[C@@H]1Cc1cn(C)c3cccc2c13 [Nicergoline] is entered as active: 3.27
# Mahalanobis distance with CC(C)C[C@H]1C(=O)N2CCC[C@H]2[C@]2(O)O[C@](NC(=O)[C@@H]3C=C4c5cccc6[nH]c(Br)c(c56)C[C@H]4N(C)C3)(C(C)C)C(=O)N12 [Bromocriptine Mesylate] is entered as active: 3.23

# Following part.

row,Structure (SMILES),Mahalanobis distance
1,CNC(C)(C)Cc1ccccc1 [Mephentermine Sulfate],inactive: 2.03
2,NCCCNCCSP(=O)(O)O [Amifostine],inactive: 1.51
3,O=c1[nH]c2ccccc2n1C1CCN(CCCC(c2ccc(F)cc2)c2ccc(F)cc2)CC1 [pimozide],inactive: 2.25
4,CN(C)C(=O)Oc1ccc[n+](C)c1 [Pyridostigmine Bromide],inactive: 2.08
5,C#CCN(C)[C@H](C)Cc1ccccc1 [Selegiline],inactive: 1.9
6,CCCC(C)(COC(N)=O)COC(=O)NC(C)C (stereo not drawn) [Carisoprodol],inactive: 1.47
7,COC(C)(C)CCC[C@H](C)C/C=C/C(C)=C/C(=O)OC(C)C [Methoprene (s)],inactive: 2.33
8,CC(O)CN1CCN(CC(=O)[O-])CCN(CC(=O)[O-])CCN(CC(=O)[O-])CC1.[Gd+3] (stereo not drawn) [Gadoteridol],inactive: 1.1
9,N[C@@H]1C[C@H]1c1ccccc1.N[C@H]1C[C@@H]1c1ccccc1 [Tranylcypromine],inactive: 1.62
10,C#CC(C)(O)CC (stereo not drawn) [Meparfylon],inactive: 1.29
11,C[C@@H]1CN([C@H]2CC[C@](C#N)(c3ccc(F)cc3)CC2)CC[C@]1(C(=O)O)c1ccccc1 [Levocabastine hcl],inactive: 1.37
12,CCC1(CC)C(=O)NC(=O)NC1=O [Barbital],inactive: 1.3
13,CCC(=O)O[C@H]1CC[C@H]2[C@@H]3CCC4=CC(=O)CC[C@]4(C)[C@H]3CC[C@]12C [Testosterone Propionate],active: 2.49
14,COc1ccc(OC)c(C(O)C(C)N)c1 (stereo not drawn) [Methoxamine],inactive: 2.02
15,CCOP(=S)(OCC)Oc1nc(Cl)c(Cl)cc1Cl [Chlorpyrifos],active: 2.65
16,CNC(=O)Oc1ccccc1OC(C)C [Propoxur],inactive: 2.18
17,CC(=O)NC1CCSC1=O (stereo not drawn) [Citiolone],inactive: 1.42
18,c1ccc2c(c1)sc1ccccc12 [Dibenzothiophene],inactive: 1.42
19,CCOP(=S)(OCC)Oc1ccc2c(C)c(Cl)c(=O)oc2c1 [Coumophos],inactive: 1.96
20,CCC(=O)O[C@](Cc1ccccc1)(c1ccccc1)[C@H](C)CN(C)C [Propoxyphene],inactive: 1.74
21,C=C1C[C@@H]2[C@H](CC[C@]3(C)C(=O)CC[C@@H]23)[C@@]2(C)C=CC(=O)C=C12 [Exemestane],active: 2.94
22,CCOc1cc(C=O)ccc1O [Ethyl Vanillin],inactive: 1.21
23,C[C@]12C/C(=C/O)C(=O)C[C@@H]1CC[C@@H]1[C@@H]2CC[C@@]2(C)[C@H]1CC[C@]2(C)O [Oxymetholone],active: 2.92
24,CC(C)c1cccc(C(C)C)c1O [Propofol],active: 3.08
